Assay results reported in publication PMC5709413.

Tests used:
[1] = biological target: T1, BEX1 (wild-type, untagged, from BEX1 transgenic mouse hearts) (UniProt Q9R224); assay: co-IP; BEX1 immunoprecipitated with anti-BEX1 (IgG as control) from BEX1 transgenic mouse hearts; Western blot for the endogenous partners
T1 sequence: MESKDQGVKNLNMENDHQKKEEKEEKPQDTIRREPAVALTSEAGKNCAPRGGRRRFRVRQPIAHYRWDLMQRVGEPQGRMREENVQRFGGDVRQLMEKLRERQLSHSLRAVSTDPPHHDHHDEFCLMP

[2] = biological target: T2, GST-BEX1 (brain-expressed X-linked protein 1 fused to glutathione-S-transferase) (UniProt Q9R224); assay: pull-down; GST-BEX1 incubated with cardiac extracts of WT mouse hearts, without micrococcal nuclease; Western blot of the partners; only the target purified
T2 sequence: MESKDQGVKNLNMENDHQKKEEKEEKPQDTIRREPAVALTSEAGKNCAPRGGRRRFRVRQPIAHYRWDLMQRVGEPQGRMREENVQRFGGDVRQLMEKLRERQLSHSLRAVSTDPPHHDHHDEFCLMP

[3] = biological target: PHD-containing factor 11 (PHF11), mouse heart (mouse (endogenous in mouse heart)); assay: co-IP; reverse: endogenous DDX1, DDX3x, EPRS, PHF11 or hnRNPH1 immunoprecipitated with specific antibodies (IgG as control) from a BEX1 transgenic mouse heart; Western blot for BEX1

Molecule: PHD-containing factor 11 (PHF11), mouse heart
- binding [1]: binds
- binding [2]: binds

B1: BEX1 (wild-type, untagged, from BEX1 transgenic mouse hearts) (protein, UniProt Q9R224 1-128)
chain: MESKDQGVKNLNMENDHQKKEEKEEKPQDTIRREPAVALTSEAGKNCAPRGGRRRFRVRQPIAHYRWDLMQRVGEPQGRMREENVQRFGGDVRQLMEKLRERQLSHSLRAVSTDPPHHDHHDEFCLMP
- binding [3]: binds

No constants are given. Whether binding was seen depends on the method and setting. In cells and extracts the contact can be indirect. A result given as binding can be weak or reduced; the word gives no strength. Where a sequence is shown, tags or fusion partners need not be part of it.
